Experimental data published in paper PMC6756050.
No constants are given. Whether binding was seen depends on the method and setting. For some assays here: In cells and extracts the contact can be indirect. Some results given as binding are weak or reduced against the parent protein; the word gives no strength. For some assays here: Tags and fused reporters may be left off the sequences shown. Values belong to the binder of their own block, whether it stands above or below them.

Sequences of proteins named here, by UniProt entry; tags and fusion partners are left off.
UniProt Q00987: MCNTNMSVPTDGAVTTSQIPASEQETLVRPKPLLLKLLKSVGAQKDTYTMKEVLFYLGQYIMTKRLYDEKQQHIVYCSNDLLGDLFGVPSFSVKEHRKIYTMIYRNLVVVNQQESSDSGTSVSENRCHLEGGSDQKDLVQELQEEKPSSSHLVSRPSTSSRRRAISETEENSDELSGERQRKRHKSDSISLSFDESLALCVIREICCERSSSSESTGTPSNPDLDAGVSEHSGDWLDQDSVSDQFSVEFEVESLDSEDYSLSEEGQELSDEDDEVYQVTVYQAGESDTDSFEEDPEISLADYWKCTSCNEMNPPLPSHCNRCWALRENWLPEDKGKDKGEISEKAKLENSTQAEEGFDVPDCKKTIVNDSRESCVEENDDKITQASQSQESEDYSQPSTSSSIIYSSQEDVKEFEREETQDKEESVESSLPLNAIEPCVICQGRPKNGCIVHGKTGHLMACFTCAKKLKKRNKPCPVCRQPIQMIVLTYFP

Key:
[1] = target: T1, endogenous MDM4 (human (endogenous in H1299)) (UniProt O15151); assay: co-IP; endogenous proteins of p53-null H1299 cells; IP with anti-HBP1, anti-MDM2 or anti-MDM4, blot with MDM2, MDM4 or HBP1 antibody; IP lysis buffer
T1 sequence: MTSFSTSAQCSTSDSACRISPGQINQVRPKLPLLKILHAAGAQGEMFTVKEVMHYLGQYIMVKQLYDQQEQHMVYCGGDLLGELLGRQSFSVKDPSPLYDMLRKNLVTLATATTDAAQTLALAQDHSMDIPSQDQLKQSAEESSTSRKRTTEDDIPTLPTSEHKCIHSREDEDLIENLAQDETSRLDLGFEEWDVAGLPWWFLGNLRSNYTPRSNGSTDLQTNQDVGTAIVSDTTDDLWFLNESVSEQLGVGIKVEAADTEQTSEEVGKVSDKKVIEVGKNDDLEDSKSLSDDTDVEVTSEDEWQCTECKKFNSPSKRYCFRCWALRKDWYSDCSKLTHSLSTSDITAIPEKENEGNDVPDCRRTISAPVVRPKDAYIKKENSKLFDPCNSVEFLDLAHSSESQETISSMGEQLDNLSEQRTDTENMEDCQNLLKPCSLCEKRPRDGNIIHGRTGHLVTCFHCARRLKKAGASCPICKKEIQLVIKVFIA

[2] = target: GST-MDM2 (UniProt Q00987); assay: pull-down; purified GST-tagged proteins or GST alone on glutathione-Sepharose beads overnight at 4 °C, His-tagged proteins added for 4 h at 4 °C, three washes, elution, western blot; both purified

binding [1]: binds
B1: endogenous HBP1 (protein, UniProt O60381 1-514)
chain: MVWEVKTNQMPNAVQKLLLVMDKRASGMNDSLELLQCNENLPSSPGYNSCDEHMELDDLPELQAVQSDPTQSGMYQLSSDVSHQEYPRSSWNQNTSDIPETTYRENEVDWLTELANIATSPQSPLMQCSFYNRSSPVHIIATSKSLHSYARPPPVSSSSKSEPAFPHHHWKEETPVRHERANSESESGIFCMSSLSDDDDLGWCNSWPSTVWHCFLKGTRLCFHKGSNKEWQDVEDFARAEGCDNEEDLQMGIHKGYGSDGLKLLSHEESVSFGESVLKLTFDPGTVEDGLLTVECKLDHPFYVKNKGWSSFYPSLTVVQHGIPCCEVHIGDVCLPPGHPDAINFDDSGVFDTFKSYDFTPMDSSAVYVLSSMARQRRASLSCGGPGGQDFARSGFSKNCGSPGSSQLSSNSLYAKAVKNHSSGTVSATSPNKCKRPMNAFMLFAKKYRVEYTQMYPGKDNRAISVILGDRWKKMKNEERRMYTLEAKALAEEQKRLNPDCWKRKRTNSGSQQH

binding [2]: binds
B2: His-tagged HBP1 (protein, UniProt O60381 1-514)
chain: B1 chain
